Some of these results come from one statement about several compounds together. For at least one compound, name, drawing or mass did not settle the structure.
Experiment: Tablet disintegration rate of additive in a standard laundry detergent formulation
Type: physicochemical
Conditions: based on a 40 g tablet, bar graph (FIGURE)

Work on NC(N)=O [Urea] yielded a Disintegration rate of at most 20 g/min.

Source: US6586386B2, “Tablet of compacted particulate cleaning composition” (ISP Investments Inc., priority 2001, dated 2003)
